According to PubChem BioAssay AID2685 (National Center for Advancing Translational Sciences (NCATS), 2010):
The list shows a part of the results. Further columns of the screen follow, without active or inactive calls. Most of these compounds were active or inconclusive in the main read-out, so they are no random draw. Words in brackets tell the shape of the fitted curve; partial curves, single points and poor fits give uncertain potencies.

Test: qHTS Assay for Lipid Storage Modulators in Drosophila S3 Cells;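 as to cell number change: cells counted by Cell Tracker Red CMTPX staining in the red channel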
Details: BODIPY lipid droplet fluorescence, 18-24 h; for cell number change: measured here: cell count max response, cells fed with added oleic acid
In short: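 Laser-scanning cytometry quantifies lipid droplet accumulation (500–530 nm total intensity; droplet/cell object ratio) in oleic acid-fed (400 uM added) Drosophila S3 cells treated with a concentration series. 20 uM Triacsin C defined 100% inhibition.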

[1] = measured here: lipid fluorescence (Fed channel) AC50, cells fed with added oleic acid
[2] = measured here: cell number channel AC50, cells fed with added oleic acid

Structure (SMILES) | cell number change | AC50 [1] | AC50 [2]
CCOC(=O)C1CCN(C(=O)Cn2nc(C)c3c(C)n(-c4ccccc4)nc3c2=O)CC1 | 9.25% | 25.9 µM [rising, single point] | –
COc1ccc(-c2csc(NC(=O)c3ccccc3NS(=O)(=O)c3ccc(F)c(F)c3)n2)cc1 | -10.5% | – | –
COc1c(C)cccc1C(=O)NCCCNC(=O)c1ccc(C)nc1 | 1.32% | – | –
C[C@H](NC(=O)[C@H](Cc1ccccc1)NC(=O)c1cc2cc(Cl)ccc2n1C)C(=O)O | -32.9% | – | 0.366 µM [falling, full curve]
CCOC(=O)c1cc(NC(=O)N2CCOCC2)c(C)nc1C | – | 3.26 µM [rising, partial curve] | –
CCCCCn1c(=O)[nH]c2cc(C(=O)N3CCN(C(=O)OCC)CC3)ccc2c1=O | – | 3.26 µM [falling, full curve] | –
O=C(Nc1ccc(F)cc1)N1CCN(c2ccc3nnc(-c4ccc(F)cc4)n3n2)CC1 | -6.08% | 18.4 µM [falling, single point] | –
CN(CC(=O)Nc1ccc(F)c(F)c1F)c1cnccn1 | 1.3% | 7.31 µM [falling, full curve, poor fit] | –
Cc1sc(N2C(=O)C3C(C2=O)[C@H]2C=C[C@@H]3C2)c(C#N)c1C (stereo not given in full) | 23.2% | 6.51 µM [falling, single point] | –
CS(=O)(=O)N(CC(=O)NCc1ccccc1Cl)C1CCCCC1 | -40.9% | 10.3 µM [falling, partial curve] | 11.6 µM [falling, partial curve]
O=C(NC1CCCCCC1)c1ccc(-n2cnnc2)cc1 | -33.1% | 10 µM [falling, partial curve] | 7.94 µM [falling, partial curve]
CC(C)CCN(C(=O)c1ccncc1)c1c(N)n(Cc2ccccc2)c(=O)[nH]c1=O | 19.2% | 3.26 µM [falling, single point] | –
Cc1onc(-c2c(Cl)cccc2Cl)c1NC(=O)NNc1ccccc1 | -37.7% | 29.1 µM [falling, single point] | 16.4 µM [falling, single point]
CCOc1ccc(C(=O)Nc2ccc(N3CCN(C)CC3)cc2)cc1Br | 0.225% | 6.51 µM [rising, single point] | –
O=C(N/N=C/c1ccco1)c1csc2c1CCCC2 | 14.5% | – | –
CCOC(=O)c1ccc([N+](=O)[O-])c(CS(=O)(=O)c2ccc(Cl)cc2)c1 | 24.4% | – | –
Cc1noc(/C=C/N(C)C)c1S(=O)(=O)N1CCN(c2ccccc2)CC1 | 38.4% | 29.1 µM [rising, single point] | 0.0184 µM [rising, full curve, poor fit]
CC(C)C(=O)Nc1c(C(=O)c2ccc(F)cc2)oc2ccccc12 | -0.506% | 0.206 µM [falling, full curve, poor fit] | –
Nc1nc(Cl)cc(N2CCC(c3cc(-c4ccc(Cl)cc4)n[nH]3)CC2)n1 | -0.96% | 29.1 µM [falling, single point] | –
Cc1c(Cl)cccc1NC(=S)NC1CCN(C(C)C)CC1 | -11.1% | 0.116 µM [falling, full curve, poor fit] | –

A stretch from the list above:
Structure (SMILES) | cell number change | AC50 [1] | AC50 [2]
CN(CC(=O)Nc1ccc(F)c(F)c1F)c1cnccn1 | 1.3% | 7.31 µM [falling, full curve, poor fit] | –
Cc1sc(N2C(=O)C3C(C2=O)[C@H]2C=C[C@@H]3C2)c(C#N)c1C (stereo not given in full) | 23.2% | 6.51 µM [falling, single point] | –

(listing goes on)

Structure (SMILES) | cell number change | AC50 [1] | AC50 [2]
CCCCCC[n+]1c(-c2ccccc2)csc1Nc1ccccc1 | -12.8% | 16.4 µM [falling, single point] | –
CCSc1nnc(-c2ccc(OC)cc2)o1 | – | 0.731 µM [rising, single point] | –
COc1ccc(CC(=O)Oc2ccc(Br)cc2F)cc1S(=O)(=O)N1CCOCC1 | 11.3% | 16.4 µM [falling, single point] | –
Cc1c(NC(=O)COc2ccccc2Cl)c(=O)n(-c2ccccc2)n1C | -4.64% | 29.1 µM [rising, single point] | –
CN(CC(=O)Nc1ccc(F)cc1)C(=O)C1CC(=O)N(Cc2ccccc2)C1 (stereo not given) | 37.6% | 0.1 µM [rising, full curve, poor fit] | –
O=C(O)c1ccc(OCC(O)Cn2cnc3ccccc32)cc1 (stereo not given) | -5.15% | 11.6 µM [falling, single point] | 4.11 µM [rising, single point]
O=C(O/N=C1\CCS(=O)(=O)c2sccc21)C1CC1 | -53.9% | – | 16.4 µM [falling, single point]
O=C(OCC(=O)N1CCCC1)c1cc([N+](=O)[O-])ccc1Cl | 5.41% | 0.13 µM [falling, full curve, poor fit] | –
COC(=O)c1sccc1NC(=S)N1CCCC(C)C1 (stereo not given) | 6.47% | 0.461 µM [rising, single point] | 0.58 µM [rising, full curve]
CCCCn1c(=O)n(CC(=O)Nc2ccc(C)c(Cl)c2)c(=O)c2c1ncn2Cc1ccco1 | – | 0.259 µM [rising, full curve, poor fit] | 2.06 µM [rising, partial curve]
O=C(Nc1ccc(Cl)cc1)OCc1cncs1 | – | 6.51 µM [falling, single point] | –
COCCNC(=O)C(=O)NNC(=O)CCc1ccccc1 | -10.8% | 0.58 µM [falling, single point] | –
O=C(NC1CCCC1)C(=O)N(Cc1cccnc1)C(C(=O)NCC1CCCO1)c1ccco1 (stereo not given) | 4.81% | 6.51 µM [falling, single point] | –
COc1ccc(-c2coc3cc(OC4OC(CO)C(O)C(O)C4O)cc(O)c3c2=O)cc1 (stereo not given) | -0.519% | 29.1 µM [rising, single point] | –
CCOC(=O)c1cccc(NC(=O)CSc2nnc(C)n2Cc2ccccc2)c1 | 5.75% | – | –
C/C(=N\Nc1ncnc2sc(C)c(C)c12)c1ccccn1 | 176% | – | 23.1 µM [rising, single point]
CCOC(=O)C1CCN(C(=O)C(=O)Nc2ccc3nc4n(c(=O)c3c2)CCCCC4)CC1 | 1.73% | – | –
O=C(CN(C1CCCCC1)S(=O)(=O)c1ccccc1)N1CCCC1 | -136% | 29.1 µM [falling, single point] | 20.6 µM [falling, partial curve]
CC(=O)c1ccc(N2CCN(c3ccccc3O)CC2)c([N+](=O)[O-])c1 | -21.4% | 29.1 µM [falling, single point] | –
COc1ccc(NC(=O)c2cccc(NC(=O)c3ccccc3)c2)cc1 | -16.1% | 29.1 µM [falling, single point] | –

Structure (SMILES) | cell number change | AC50 [1] | AC50 [2]
CCc1ccc(N(C(=O)c2ccco2)C(C(=O)NC2CCCC2)c2cccnc2)cc1 (stereo not given) | – | 29.1 µM [falling, single point] | 0.092 µM [falling, full curve, poor fit]
Cc1ccc(NNC(=O)Nc2ccc(Cl)cc2)nn1 | -9.19% | 0.731 µM [falling, single point] | –
O=C(OCC(=O)N(C1CCCCC1)C1CCCCC1)c1cnccn1 | -3.36% | – | –
CCc1noc(C)c1C(=O)NNC(=O)c1ccc(N(CC)CC)cc1 | -18.5% | – | –
CCOC(=O)Cc1csc(NC(=O)c2ccc(Br)cc2)n1 | 11.7% | 20.6 µM [falling, single point] | –
COc1cccc(/C=N/NC(=O)CC(=O)NCCc2ccccc2)c1OC | -9.18% | – | –
CCC(C(=O)NCCN1CCN(C)CC1)n1c(C)c2cnn(-c3ccccc3)c(=O)c2c1C (stereo not given) | -8% | 0.164 µM [rising, single point] | –
O=C(c1ccccc1)C1CCN(C(=O)C2CCC(=O)N(Cc3ccccc3F)C2)CC1 (stereo not given) | -29% | 22.4 µM [falling, single point] | –
O=C(N/N=C/c1ccc(O)c(O)c1)c1ccc(CSc2cccc3cccnc23)cc1 | -3.54% | 3.26 µM [rising, partial curve] | 2.91 µM [rising, single point]
Cc1ccc(CCNC(=O)C2CCN(S(=O)(=O)N3CCOCC3)CC2)cc1 | 20.2% | – | –
CCCc1cc(=O)[nH]c(SCC(=O)N(C)C2CCS(=O)(=O)C2)n1 (stereo not given) | 31.4% | 29.1 µM [rising, single point] | 0.116 µM [rising, full curve, poor fit]
CCCC(=O)Nc1ccc(C(=O)COC(=O)C2=COCCO2)cc1 | -24.1% | – | 0.206 µM [falling, full curve, poor fit]
CCOC(=O)c1[nH]c(COC(=O)CCCOc2ccccc2)c(C(=O)OCC)c1C | -23.3% | 0.731 µM [rising, full curve, poor fit] | –
CCOc1ccccc1NC(=O)CCSc1nc2n[nH]c(C)c2c(=N)n1-c1ccccc1Cl | – | – | 3.66 µM [rising, single point]
CCOC(=O)C1(Cc2ccc(OC)cc2)CCN(C(=O)C2=CCCC2)CC1 | -26.7% | 0.0231 µM [falling, full curve, poor fit] | –
NC(=O)c1c(NC(=O)C2CCCO2)sc2c1CCC2 (stereo not given) | -9.03% | 29.1 µM [falling, single point] | 0.00461 µM [falling, full curve, poor fit]
Cc1ccnc2nc(C(=O)Nc3ccc4c(c3)OCO4)nn12 | -5.8% | 6.51 µM [rising, partial curve, poor fit] | 0.291 µM [rising, full curve]
Cc1c(C)n(Cc2ccccc2)c2ccc(C(=O)NCCCN3CCOCC3)cc12 | 23.9% | 29.1 µM [rising, single point] | –
CCCCOc1ccc(C(=O)Oc2ccc(C)nc2)cc1 | 4.46% | 9.2 µM [falling, single point] | –
CCCCCCCOC(=O)c1ccc(OC(=O)c2cccnc2)cc1 | 12.1% | – | –

Of the compounds above, these contain a Cl atom:
Structure (SMILES) | cell number change | AC50 [1] | AC50 [2]
C[C@H](NC(=O)[C@H](Cc1ccccc1)NC(=O)c1cc2cc(Cl)ccc2n1C)C(=O)O | -32.9% | – | 0.366 µM [falling, full curve]
CS(=O)(=O)N(CC(=O)NCc1ccccc1Cl)C1CCCCC1 | -40.9% | 10.3 µM [falling, partial curve] | 11.6 µM [falling, partial curve]
Cc1onc(-c2c(Cl)cccc2Cl)c1NC(=O)NNc1ccccc1 | -37.7% | 29.1 µM [falling, single point] | 16.4 µM [falling, single point]
CCOC(=O)c1ccc([N+](=O)[O-])c(CS(=O)(=O)c2ccc(Cl)cc2)c1 | 24.4% | – | –
Nc1nc(Cl)cc(N2CCC(c3cc(-c4ccc(Cl)cc4)n[nH]3)CC2)n1 | -0.96% | 29.1 µM [falling, single point] | –
Cc1c(Cl)cccc1NC(=S)NC1CCN(C(C)C)CC1 | -11.1% | 0.116 µM [falling, full curve, poor fit] | –
Cc1c(NC(=O)COc2ccccc2Cl)c(=O)n(-c2ccccc2)n1C | -4.64% | 29.1 µM [rising, single point] | –
O=C(OCC(=O)N1CCCC1)c1cc([N+](=O)[O-])ccc1Cl | 5.41% | 0.13 µM [falling, full curve, poor fit] | –
CCCCn1c(=O)n(CC(=O)Nc2ccc(C)c(Cl)c2)c(=O)c2c1ncn2Cc1ccco1 | – | 0.259 µM [rising, full curve, poor fit] | 2.06 µM [rising, partial curve]
O=C(Nc1ccc(Cl)cc1)OCc1cncs1 | – | 6.51 µM [falling, single point] | –
Cc1ccc(NNC(=O)Nc2ccc(Cl)cc2)nn1 | -9.19% | 0.731 µM [falling, single point] | –
CCOc1ccccc1NC(=O)CCSc1nc2n[nH]c(C)c2c(=N)n1-c1ccccc1Cl | – | – | 3.66 µM [rising, single point]
